Reference: patent US20120172333A1, “PYRROLO-PYRIDINE DERIVATIVES AS ACTIVATORS OF AMPK” (GLAXOSMITHKLINE LLC, priority 2009, published 2012)
Some entries share one result that the patent states for a list of compounds.

The compounds below were run on Human recombinant AMPK (assay: AMPK enzymatic assay (Z'Lyte FRET)). Details: ATP 100 μM, peptide 2 μM, 1% DMSO, 1 hour at 30° C.; means of at least 2 independent experiments.
Type: biochemical
For N#Cc1c(O)c2c(ccn2-c2ccc(-c3ccc4c(c3)OCCO4)cc2)[nH]c1=O [Example 68, 1-[4-(2,3-Dihydro-1,4-benzodioxin-6-yl)phenyl]-7-hydroxy-5-oxo-4,5-dihydro-1H-pyrrolo[3,2-b]pyridine-6-carbonitrile], the “pEC200 (-Log(compound concentration leading to a 2-fold AMPK activity increase))” value was “greater than 4.0”. With N#Cc1c(O)c2c(ccn2-c2ccc(-c3ccccc3O)cc2)[nH]c1=O [Example 2, 7-Hydroxy-1-(2′-hydroxy-4-biphenylyl)-5-oxo-4,5-dihydro-1H-pyrrolo[3,2-b]pyridine-6-carbonitrile] the “pEC200 (-Log(compound concentration leading to a 2-fold AMPK activity increase))” value was “greater than 4.0”. For Cc1ccc(-c2ccc(-n3ccc4[nH]c(=O)c(C#N)c(O)c43)cc2)nc1 [Example 54, 7-Hydroxy-1-[4-(5-methyl-2-pyridinyl)phenyl]-5-oxo-4,5-dihydro-1H-pyrrolo[3,2-b]pyridine-6-carbonitrile], the “pEC200 (-Log(compound concentration leading to a 2-fold AMPK activity increase))” value was “greater than 4.0”. With Cc1noc(C)c1-c1ccc(-n2ccc3[nH]c(=O)c(C#N)c(O)c32)cc1 [Example 52, 1-[4-(3,5-Dimethyl-4-isoxazolyl)phenyl]-7-hydroxy-5-oxo-4,5-dihydro-1H-pyrrolo[3,2-b]pyridine-6-carbonitrile] the “pEC200 (-Log(compound concentration leading to a 2-fold AMPK activity increase))” value was “greater than 4.0”. For N#Cc1c(O)c2c(ccn2-c2ccc(-c3cccc(C(=O)O)c3O)cc2)[nH]c1=O [Example 31, 4′-(6-Cyano-7-hydroxy-5-oxo-4,5-dihydro-1H-pyrrolo[3,2-b]pyridin-1-yl)-2-hydroxy-3-biphenylcarboxylic acid], the “pEC200 (-Log(compound concentration leading to a 2-fold AMPK activity increase))” value was “greater than 4.0”. With Cc1ccc(-c2ccc(-n3ccc4[nH]c(=O)c(C#N)c(O)c43)cc2)c(F)c1 [Example 44, 1-(2′-Fluoro-4′-methyl-4-biphenylyl)-7-hydroxy-5-oxo-4,5-dihydro-1H-pyrrolo[3,2-b]pyridine-6-carbonitrile] the “pEC200 (-Log(compound concentration leading to a 2-fold AMPK activity increase))” value was “greater than 4.0”. In the case of CCOC(=O)c1ccc(-n2ccc3[nH]c(=O)c(C#N)c(O)c32)cc1 [Example 41, Ethyl 4-(6-cyano-7-hydroxy-5-oxo-4,5-dihydro-1H-pyrrolo[3,2-b]pyridin-1-yl)benzoate], the “pEC200 (-Log(compound concentration leading to a 2-fold AMPK activity increase))” value is reported as “greater than 4.0”. In the case of CC(=O)Nc1ccc(-c2ccc(-n3ccc4[nH]c(=O)c(C#N)c(O)c43)cc2)cc1 [Example 17, N-[4′-(6-Cyano-7-hydroxy-5-oxo-4,5-dihydro-1H-pyrrolo[3,2-b]pyridin-1-yl)-4-biphenylyl]acetamide], the “pEC200 (-Log(compound concentration leading to a 2-fold AMPK activity increase))” value is reported as “greater than 4.0”. N#Cc1c(O)c2c(ccn2-c2ccc(-c3cccc(Cl)c3O)cc2)[nH]c1=O [Example 60, 1-(3′-Chloro-2′-hydroxy-4-biphenylyl)-7-hydroxy-5-oxo-4,5-dihydro-1H-pyrrolo[3,2-b]pyridine-6-carbonitrile] was tested, and the “pEC200 (-Log(compound concentration leading to a 2-fold AMPK activity increase))” value was “greater than 4.0”. Cc1cccc(-c2ccc(-n3ccc4[nH]c(=O)c(C#N)c(O)c43)cc2)c1O [Example 58, 7-Hydroxy-1-(2′-hydroxy-3′-methyl-4-biphenylyl)-5-oxo-4,5-dihydro-1H-pyrrolo[3,2-b]pyridine-6-carbonitrile] was tested, and the “pEC200 (-Log(compound concentration leading to a 2-fold AMPK activity increase))” value was “greater than 4.0”. In the case of O=c1[nH]c2ccn(-c3ccc(-c4ccccc4O)cc3)c2c(O)c1-c1ccc(F)cc1 [Example 37, 6-(4-Fluorophenyl)-7-hydroxy-1-(2′-hydroxy-4-biphenylyl)-1,4-dihydro-5H-pyrrolo[3,2-b]pyridin-5-one], the “pEC200 (-Log(compound concentration leading to a 2-fold AMPK activity increase))” value is reported as “greater than 4.0”. In the case of O=c1cc(O)c2c(ccn2-c2ccc(Br)cc2)[nH]1 [Example 43, 1-(4-Bromophenyl)-7-hydroxy-1,4-dihydro-5H-pyrrolo[3,2-b]pyridin-5-one], the “pEC200 (-Log(compound concentration leading to a 2-fold AMPK activity increase))” value is reported as “greater than 4.0”. With N#Cc1c(O)c2c(ccn2-c2ccc(-c3ccc(O)cc3)cc2)[nH]c1=O [Example 13, 7-Hydroxy-1-(4′-hydroxy-4-biphenylyl)-5-oxo-4,5-dihydro-1H-pyrrolo[3,2-b]pyridine-6-carbonitrile] the “pEC200 (-Log(compound concentration leading to a 2-fold AMPK activity increase))” value was “greater than 4.0”. With C=CCc1cc(OC)c(O)c(-c2ccc(-n3ccc4[nH]c(=O)c(C#N)c(O)c43)cc2)c1 [Example 67, 7-Hydroxy-1-[2′-hydroxy-3′-(methyloxy)-5′-(2-propen-1-yl)-4-biphenylyl]-5-oxo-4,5-dihydro-1H-pyrrolo[3,2-b]pyridine-6-carbonitrile] the “pEC200 (-Log(compound concentration leading to a 2-fold AMPK activity increase))” value was “greater than 4.0”.

Same assay, conditions: same AMPK enzymatic assay; ATP 100 μM, peptide 2 μM
In the case of N#Cc1c(O)c2c(cc(Cl)n2-c2ccc(-c3cccc(N)n3)cc2)[nH]c1=O [Example 109, 1-[4-(6-Amino-2-pyridinyl)phenyl]-2-chloro-7-hydroxy-5-oxo-4,5-dihydro-1H-pyrrolo[3,2-b]pyridine-6-carbonitrile], the “average pEC50” value is reported as “greater than 4.5”. For N#Cc1c(O)c2c(cc(Cl)n2-c2ccc(-c3cccc(F)c3O)cc2)[nH]c1=O [Example 114, 2-Chloro-1-(3,-fluoro-2′-hydroxy-4-biphenylyl)-7-hydroxy-5-oxo-4,5-dihydro-1H-pyrrolo[3,2-b]pyridine-6-carbonitrile], the “average pEC50” value was “greater than 4.5”. For Cc1ccc(-n2c(Cl)cc3[nH]c(=O)c(-c4cccc(C#N)c4)c(O)c32)cc1 [Example 143, 3-[2-Chloro-7-hydroxy-1-(4-methylphenyl)-5-oxo-4,5-dihydro-1H-pyrrolo[3,2-b]pyridin-6-yl]benzonitrile], the “average pEC50” value was “greater than 4.5”. With N#Cc1c(O)c2c(cc(Cl)n2-c2ccc(-c3ccccc3)cc2O)[nH]c1=O [Example 108, 2-Chloro-7-hydroxy-1-(3-hydroxy-4-biphenylyl)-5-oxo-4,5-dihydro-1H-pyrrolo[3,2-b]pyridine-6-carbonitrile] the “average pEC50” value was “greater than 4.5”. In the case of N#Cc1c(O)c2c(cc(Cl)n2-c2ccc(-c3ccccc3)cc2CO)[nH]c1=O [Example 110, 2-Chloro-7-hydroxy-1-[3-(hydroxymethyl)-4-biphenylyl]-5-oxo-4,5-dihydro-1H-pyrrolo[3,2-b]pyridine-6-carbonitrile], the “average pEC50” value is reported as “greater than 4.5”. In the case of N#Cc1c(O)c2c(cc(C#N)n2-c2ccc(-c3ccsc3)cc2)[nH]c1=O [Example 111, 7-Hydroxy-5-oxo-1-[4-(3-thienyl)phenyl]-4,5-dihydro-1H-pyrrolo[3,2-b]pyridine-2,6-dicarbonitrile], the “average pEC50” value is reported as “greater than 4.5”. With N#Cc1c(O)c2c(ccn2-c2ccc(-c3ccco3)cc2)[nH]c1=O [Example 78, 1-[4-(2-Furanyl)phenyl]-7-hydroxy-5-oxo-4,5-dihydro-1H-pyrrolo[3,2-b]pyridine-6-carbonitrile] the “average pEC50” value was “greater than 4.5”. In the case of COc1cccc(-c2ccc(-n3c(Cl)cc4[nH]c(=O)c(-c5ccccc5F)c(O)c43)cc2)c1O [Example 164, 2-Chloro-6-(2-fluorophenyl)-7-hydroxy-1-[2′-hydroxy-3′-(methyloxy)-4-biphenylyl]-1,4-dihydro-5H-pyrrolo[3,2-b] pyridin-5-one], the “average pEC50” value is reported as “greater than 4.5”. In the case of Cc1cc2[nH]c(=O)c(C#N)c(O)c2n1-c1ccc(-c2ccsc2)cc1 [Example 79, 7-Hydroxy-2-methyl-5-oxo-1-[4-(3-thienyl)phenyl]-4,5-dihydro-1H-pyrrolo[3,2-b]pyridine-6-carbonitrile], the “average pEC50” value is reported as “greater than 4.5”. For COc1cccc(Cl)c1-c1ccc(-n2c(Cl)cc3[nH]c(=O)c(C#N)c(O)c32)cc1 [Example 104, 2-Chloro-1-[2′-chloro-6′-(methyloxy)-4-biphenylyl]-7-hydroxy-5-oxo-4,5-dihydro-1H-pyrrolo[3,2-b]pyridine-6-carbonitrile], the “average pEC50” value was “greater than 4.5”. With COc1ccc(-n2ccc3[nH]c(=O)c(-c4cccc(F)c4)c(O)c32)cc1 [Example 149, 6-(3-Fluorophenyl)-7-hydroxy-1-[4-(methyloxy)phenyl]-1,4-dihydro-5H-pyrrolo[3,2-b]pyridin-5-one] the “average pEC50” value was “greater than 4.5”. For CCc1ccc(-n2c(Cl)cc3[nH]c(=O)c(-c4ccccc4)c(O)c32)cc1 [Example 123, 2-Chloro-1-(4-ethylphenyl)-7-hydroxy-6-phenyl-1,4-dihydro-5H-pyrrolo[3,2-b]pyridine-5-one], the “average pEC50” value was “greater than 4.5”. With N#Cc1c(O)c2c(cc(Cl)n2-c2ccc(-c3ccc(S(N)(=O)=O)s3)cc2)[nH]c1=O [Example 95, 5-[4-(2-Chloro-6-cyano-7-hydroxy-5-oxo-4,5-dihydro-1H-pyrrolo[3,2-b]pyridin-1-yl)phenyl]-2-thiophenesulfonamide] the “average pEC50” value was “greater than 4.5”. In the case of COc1ccc(-n2c(Cl)cc3[nH]c(=O)c(-c4cccc(F)c4)c(O)c32)cc1 [Example 122, 2-Chloro-6-(3-fluorophenyl)-7-hydroxy-1-[4-(methyloxy)phenyl]-1,4-dihydro-5H-pyrrolo[3,2-b]pyridine-5-one], the “average pEC50” value is reported as “greater than 4.5”. In the case of CCc1ccc(-n2c(C#N)cc3[nH]c(=O)c(-c4ccccc4)c(O)c32)cc1 [Example 147, 1-(4-Ethylphenyl)-7-hydroxy-5-oxo-6-phenyl-4,5-dihydro-1H-pyrrolo[3,2-b]pyridine-2-carbonitrile], the “average pEC50” value is reported as “greater than 4.5”. COc1cccc(-n2c(Cl)cc3[nH]c(=O)c(-c4cccc(F)c4)c(O)c32)c1 [Example 128, 2-Chloro-6-(3-fluorophenyl)-7-hydroxy-1-[3-(methyloxy)phenyl]-1,4-dihydro-5H-pyrrolo[3,2-b]pyridin-5-one] was tested, and the “average pEC50” value was “greater than 4.5”. With Cc1ccc(-c2ccc(-n3c(Cl)cc4[nH]c(=O)c(C#N)c(O)c43)cc2)c(F)c1 [Example 116, 2-Chloro-1-(2′-fluoro-4′-methyl-4-biphenylyl)-7-hydroxy-5-oxo-4,5-dihydro-1H-pyrrolo[3,2-b]pyridine-6-carbonitrile] the “average pEC50” value was “greater than 4.5”. For N#Cc1c(O)c2c(cc(Cl)n2-c2ccc(-c3cccnc3)cc2)[nH]c1=O [Example 103, 2-Chloro-7-hydroxy-5-oxo-1-[4-(3-pyridinyl)phenyl]-4,5-dihydro-1H-pyrrolo[3,2-b]pyridine-6-carbonitrile], the “average pEC50” value was “greater than 4.5”.
